Source: PubChem BioAssay AID504834 (National Center for Advancing Translational Sciences (NCATS), 2011)
The campaign covered roughly 320,000 compounds. About 22,000 (6.9%) were called active. The inconclusive results got no clear call from the source; some entries with a clear call stand among them for comparison. Calls come from the whole dose curve; as a rule, active = well fitted inhibition curve with a large enough effect; inconclusive = small, poorly fitted or top-dose-only effect, or another doubt; inactive = no such curve, though single readings can be large or run the other way. A potency beside an inconclusive call is a rough fit, not a confirmed value.

Assay: Primary qHTS for delayed death inhibitors of the malarial parasite plastid, 96 hour incubation
Conditions: P. falciparum luciferase reporter growth; series mostly up to 28.7 µM; activity change, negative = inhibition: at the top concentration
Procedure, shortened: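 Luminescence readout: decreased luciferase signal marks inhibited growth of reporter-expressing P. falciparum in infected red cells (2% hematocrit, 0.05% parasitemia final), exposed to compound two generations (96 h, 37 C, 5% CO2).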
% is set by controls: 0 for no effect and ±100 for the full control effect; potency is the fitted concentration of half-maximal effect.

Row | Compound | Potency | activity change, negative = inhibition
1 | COc1ccc(C2=NC(C)(C)Cc3cc(OC)c(OC)cc32)cc1OC | inconclusive: 18.5 µM [inhibitor, single point] | 
2 | COc1cccc(C2CC(c3ccc(Br)cc3)=NN2C(=O)c2ccncc2)c1OC (configuration not stated) | inconclusive: 10.4 µM [inhibitor, single point] | 
3 | COc1ccc(S(=O)(=O)NCc2ccc(F)cc2)cc1OC |  | inactive: -0.441%
4 | CC(C)Cc1nnc(NC(=O)CCNC(=O)c2ccccc2Cl)s1 | inconclusive: 13.1 µM [inhibitor, single point] | 
5 | COc1ccc(N(CC(=O)NCCc2ccc(Cl)cc2)S(=O)(=O)c2c(C)[nH]c(=O)[nH]c2=O)cc1 | inconclusive: 1.31 µM [inhibitor, partial curve] | 
6 | CCN(CC)c1ccc2c(c1)CCCN2 | active: 10.4 µM | 
7 | CN1C=CC2=C(C#N)C(N)C(C#N)(C#N)[C@H](c3ccccc3)[C@H]2C1 (some centres not stated) | inconclusive: 9.28 µM [inhibitor, single point] | 
8 | N/C(=N\OC(=O)N1c2ccccc2Sc2ccccc21)c1ccc(Br)cc1 | active: 10.4 µM | 
9 | CCOc1ccc(C(=O)NCc2ccco2)cc1Cl | inconclusive: 2.08 µM [inhibitor, full curve, poor fit] | 
10 | CCOc1ccc(/C=C/C(=O)Nc2ccc(N3CCOCC3)cc2)cc1 | inconclusive: 4.15 µM [inhibitor, partial curve, poor fit] | 
11 | CNC(=O)c1cnn(-c2nc(-c3ccc(OC)cc3)cs2)c1C(F)(F)F |  | inactive: 9.47%
12 | CCc1nnc(NC(=O)Cc2ccc(S(=O)(=O)N3CCCCC3)cc2)s1 | active: 11.7 µM | 
13 | O=C(CSc1cn[nH]n1)Nc1cccc(C(F)(F)F)c1 |  | inactive: -8.43%
14 | CC(=O)n1cc(N(C(=O)CCl)c2ccc(C)cc2)c2ccccc21 | inconclusive: 3.7 µM [inhibitor, single point] | 
15 | CCCc1cc(=O)oc2cc(C)cc(OC(C)C(=O)NCc3ccncc3)c12 (configuration not stated) | active: 2.94 µM | 
16 | O=C(CS(=O)(=O)Cc1ccccc1)N1CCc2ccccc21 |  | inactive: 0%
17 | Cc1cccc(C)c1NC(=O)C1(N2C(=O)CC2c2ccccc2)CCCCC1 (configuration not stated) | inconclusive: 4.15 µM [inhibitor, full curve] | 
18 | NC(=O)c1ccc(-c2noc(-c3cccc(Cl)c3)n2)cc1 |  | inactive: 139%
19 | COc1cc(OC)c(C(=O)OCC(=O)NCCC2=CCCCC2)cc1OC | inconclusive: 18.5 µM [inhibitor, partial curve, poor fit] | 
20 | COc1ccc(O)c(-c2cc(-c3ccccc3Cl)[nH]n2)c1 |  | inactive: -12.5%
21 | C=CCN(C(=O)CSC1=NC(=O)CN1C(C)=O)c1nc(C)c(-c2ccccc2)s1 |  | inactive: 199%
22 | CC(=O)c1cccc(NC(=O)c2cc3ccccn3n2)c1 | inconclusive: 3.29 µM [inhibitor, full curve, poor fit] | 
23 | CCCc1[nH]nc2c1C(c1cccc(OC)c1)C(C#N)=C(N)O2 (configuration not stated) |  | inactive: 80.7%
24 | Cc1cccc(OCCCC(=O)NNC(=O)c2ccccn2)c1 | active: 1.65 µM | 

Row | Compound | Potency | activity change, negative = inhibition
25 | COc1ccc(-c2csc(NC(=O)c3c(C)noc3C)n2)cc1F | inconclusive: 0.0041 µM [inhibitor, full curve] | 
26 | COc1ccc(NC(=O)CS(=O)(=O)c2cn(CC(=O)N3CCOCC3)c3ccccc23)cc1 |  | inactive: 5.05%
27 | CSc1nc(N2CCN(Cc3ccc4c(c3)OCO4)CC2)c2ccccc2n1 | inconclusive: 10.4 µM [inhibitor, single point] | 
28 | CNC(=O)CSc1nc2ccccc2c(=O)n1CCc1ccccc1 | inconclusive: 10.4 µM [inhibitor, single point] | 
29 | COc1cccc(-c2nc(-c3ccc(NC(=O)c4ccncc4)cc3)no2)c1 | inconclusive: 18.5 µM [inhibitor, single point] | 
30 | CC1=C(C(N)=O)S(=O)(=O)c2ccccc21 |  | inactive: 40%
31 | O=C(Nc1ccc(S(=O)(=O)NCCc2ccccc2)cc1)c1ccncc1 | inconclusive: 18.5 µM [inhibitor, single point] | 
32 | Cc1c(C(=O)OCCOC(C)C)[nH]c2c1C(=O)CC(c1ccco1)C2 (configuration not stated) | inconclusive: 11.7 µM [inhibitor, single point] | 
33 | Cc1cccn2cc(-c3ccc4c(c3)NC(=O)CO4)nc12 |  | inactive: 91.8%
34 | CN(c1ccc(O)cc1)c1nc(-c2cccnc2)cs1 | inconclusive: 20.8 µM [inhibitor, single point] | 
35 | Cc1ccc(OCC(=O)NNC(=S)NC(=O)c2cccs2)c(C)c1 | inconclusive: 9.28 µM [inhibitor, partial curve] | 
36 | Cc1sc2ncnc(N3CCC(C(=O)N(C)CC(=O)Nc4ccccc4Cl)CC3)c2c1C | inconclusive: 13.1 µM [inhibitor, partial curve, poor fit] | 
37 | Cc1ccc(C)c(NS(=O)(=O)c2cc(C(=O)Nc3cccc(N(C)S(C)(=O)=O)c3)ccc2C)c1 | inconclusive: 16.5 µM [inhibitor, partial curve, poor fit] | 
38 | C[C@@]12CCC=C[C@H]1[C@H](c1ccoc1)N(Cc1ccccc1)C2=O |  | inactive: 61.5%
39 | Cc1nnc(NC(=O)c2ccccc2NC(=O)c2ccccc2)s1 |  | inactive: -22.1%
40 | O=C(CSc1nnc(-c2ccco2)c(-c2ccco2)n1)c1ccccc1 | inconclusive: 11.7 µM [inhibitor, partial curve] | 
41 | COc1cc2oc3ccccc3c(=O)c2cc1OC |  | inactive: -11.6%
42 | CCOC(=O)C(NCc1ccccn1)(NC(=O)c1cccnc1)C(F)(F)F (configuration not stated) | inconclusive: 2.94 µM [inhibitor, full curve, poor fit] | 
43 | CCCCn1c(=O)[nH]c(=O)c2c1nc(CN1C(=O)c3ccccc3S1(=O)=O)n2CCC | inconclusive: 11.7 µM [inhibitor, single point] | 
44 | CC1Cc2ccccc2N1S(=O)(=O)c1cccc(C(=O)NC2CC2)c1 (configuration not stated) | inconclusive: 5.22 µM [inhibitor, partial curve, poor fit] | 
45 | O=S(=O)(N/N=C/c1ccc2c(c1)OCO2)c1ccc(Br)cc1 |  | inactive: 14.3%
46 | CCOc1ccccc1N(C)C(=O)c1nn(-c2ccc(OC)cc2OC)c(=O)c2ccccc12 |  | inactive: 5.07%
47 | CCc1ccc(C(=O)OCC(=O)Nc2cccc(S(=O)(=O)NC3=NCCCCC3)c2)cc1 | active: 10.4 µM | 

Reformatted with each value named: part of the list above
COc1ccc(O)c(-c2cc(-c3ccccc3Cl)[nH]n2)c1
  activity change, negative = inhibition: inactive: -12.5%
C=CCN(C(=O)CSC1=NC(=O)CN1C(C)=O)c1nc(C)c(-c2ccccc2)s1
  activity change, negative = inhibition: inactive: 199%
CC(=O)c1cccc(NC(=O)c2cc3ccccn3n2)c1
  Potency: inconclusive: 3.29 µM [inhibitor, full curve, poor fit]
CCCc1[nH]nc2c1C(c1cccc(OC)c1)C(C#N)=C(N)O2 (configuration not stated)
  activity change, negative = inhibition: inactive: 80.7%
